The record followed here is publication PMC10417424.

Amino acid sequences for entries named in this document (tags omitted).
UniProt Q96GG9: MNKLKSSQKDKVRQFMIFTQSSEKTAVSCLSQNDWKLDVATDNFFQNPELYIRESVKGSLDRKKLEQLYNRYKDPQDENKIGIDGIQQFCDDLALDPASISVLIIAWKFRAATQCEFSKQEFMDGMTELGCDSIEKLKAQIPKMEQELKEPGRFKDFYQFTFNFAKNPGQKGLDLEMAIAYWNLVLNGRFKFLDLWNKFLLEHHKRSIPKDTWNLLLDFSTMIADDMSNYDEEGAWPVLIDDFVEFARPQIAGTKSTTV
UniProt Q13620: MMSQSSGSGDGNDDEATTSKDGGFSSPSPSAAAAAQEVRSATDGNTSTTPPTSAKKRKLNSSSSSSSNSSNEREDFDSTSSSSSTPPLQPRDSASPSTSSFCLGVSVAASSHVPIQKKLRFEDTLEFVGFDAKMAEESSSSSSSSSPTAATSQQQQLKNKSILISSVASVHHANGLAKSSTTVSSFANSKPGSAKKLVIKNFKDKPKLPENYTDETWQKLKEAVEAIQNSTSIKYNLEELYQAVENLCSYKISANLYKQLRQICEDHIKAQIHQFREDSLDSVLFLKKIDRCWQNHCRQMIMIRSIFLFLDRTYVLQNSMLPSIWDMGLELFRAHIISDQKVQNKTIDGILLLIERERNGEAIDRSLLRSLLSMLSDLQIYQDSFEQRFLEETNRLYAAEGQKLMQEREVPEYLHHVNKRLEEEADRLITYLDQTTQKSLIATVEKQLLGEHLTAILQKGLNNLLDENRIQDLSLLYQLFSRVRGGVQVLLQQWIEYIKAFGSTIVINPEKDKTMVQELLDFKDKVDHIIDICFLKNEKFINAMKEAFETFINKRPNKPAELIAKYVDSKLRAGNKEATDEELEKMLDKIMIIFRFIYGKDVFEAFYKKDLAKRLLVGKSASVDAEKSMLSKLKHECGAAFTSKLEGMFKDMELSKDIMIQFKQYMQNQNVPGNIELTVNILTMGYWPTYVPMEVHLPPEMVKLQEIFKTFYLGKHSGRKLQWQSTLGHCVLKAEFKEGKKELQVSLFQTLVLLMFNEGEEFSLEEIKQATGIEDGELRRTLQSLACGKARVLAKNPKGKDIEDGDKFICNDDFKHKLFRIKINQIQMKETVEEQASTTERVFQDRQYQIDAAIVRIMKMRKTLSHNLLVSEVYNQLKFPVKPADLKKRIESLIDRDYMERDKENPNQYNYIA
UniProt P22314: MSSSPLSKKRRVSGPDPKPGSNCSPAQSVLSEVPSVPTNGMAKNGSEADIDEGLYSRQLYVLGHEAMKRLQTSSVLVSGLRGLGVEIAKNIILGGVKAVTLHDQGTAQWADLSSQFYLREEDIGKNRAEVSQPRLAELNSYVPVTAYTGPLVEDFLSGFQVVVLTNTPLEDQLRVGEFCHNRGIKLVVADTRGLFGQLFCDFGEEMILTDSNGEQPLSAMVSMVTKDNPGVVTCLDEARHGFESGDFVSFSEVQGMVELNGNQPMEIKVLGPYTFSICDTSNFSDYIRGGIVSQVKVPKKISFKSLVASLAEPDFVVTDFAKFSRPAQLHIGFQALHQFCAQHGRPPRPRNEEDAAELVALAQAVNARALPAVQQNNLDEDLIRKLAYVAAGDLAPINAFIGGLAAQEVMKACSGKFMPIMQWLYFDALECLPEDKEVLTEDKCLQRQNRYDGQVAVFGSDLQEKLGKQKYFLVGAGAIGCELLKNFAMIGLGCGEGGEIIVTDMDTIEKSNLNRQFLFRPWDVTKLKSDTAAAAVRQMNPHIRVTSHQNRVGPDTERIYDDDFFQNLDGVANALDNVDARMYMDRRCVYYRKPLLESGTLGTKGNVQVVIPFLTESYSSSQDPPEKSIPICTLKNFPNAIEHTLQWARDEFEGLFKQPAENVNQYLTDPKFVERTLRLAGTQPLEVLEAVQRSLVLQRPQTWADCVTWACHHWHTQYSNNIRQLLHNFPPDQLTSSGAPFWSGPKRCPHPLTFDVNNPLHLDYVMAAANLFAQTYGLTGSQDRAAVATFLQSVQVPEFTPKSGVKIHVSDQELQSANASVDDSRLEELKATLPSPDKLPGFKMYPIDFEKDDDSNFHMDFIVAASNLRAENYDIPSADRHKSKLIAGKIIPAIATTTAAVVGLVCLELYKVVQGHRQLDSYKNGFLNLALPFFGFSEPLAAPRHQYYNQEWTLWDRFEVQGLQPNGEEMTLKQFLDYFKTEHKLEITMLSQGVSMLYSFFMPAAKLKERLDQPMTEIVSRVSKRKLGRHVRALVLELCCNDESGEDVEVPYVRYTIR

This experiment deals with Flag-DCUN1D1 (defective in cullin neddylation 1 domain containing 1) (UniProt Q96GG9). In words: affinity purification with mass spectrometry; HEK 293TT cells transfected in duplicate with pcDNA-Flag-DCUN1D1 (bait) or peGFP-N3 (negative control), lysed 48 h later; EZview red anti-Flag M2 affinity gel; tryptic digestion and LC-MS/MS; hits filtered against the controls and the Crapome database.

No constants are given. Whether binding was seen depends on the method and setting. Binding seen in cells or lysates may run through a third protein. A yes stands for co-enrichment or nearness to the bait. Other partners may have been found.

Consider “cullin 4B (CUL4B) (from UniProt Q13620 1-913)”, for which the binding entry is recorded as “binds”.
As for “ubiquitin-activating enzyme UBA1 (from UniProt P22314 1-1058)”, the entry is “binds”.
